# PubChem BioAssay AID1159584, Peter MacCallum Cancer Centre, 2016
# Assay: 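Genes whose loss is lethal only together with E-cadherin loss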 (primary screen)
# Cells: human MCF10A breast epithelial cells, parental and CDH1-null
# Knock-down reagent: siRNA against human genes
# Measured: 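Cell viability by CellTiter-Glo ATP luminescence, each line scaled to the mean of mock wells across plates, then CDH1-null over parental ratio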
# Scale: CDH1-null / parental viability ratio: higher = CDH1-null cells survive relatively better than parental
# The whole screen tested about 18,000 reagents; below is a part drawn at random. Not all columns of the deposit are shown. Not given: the amount of reagent, the time to read-out.
gene,CDH1-null / parental viability ratio
TAS2R1,1.03
TUBGCP5,1.04
GARS1,1.04
PPIP5K2,0.97
NDUFA2,0.86
ARL14,1.88
MAP4K1,1.07
SIPA1L1,0.9
TRAPPC6B,0.93
RNF19B,0.88
LSG1,0.99
PRRX2,0.91
DDX53,0.99
TG,1.08
BTC,1.06
CYP1A2,1.04
MPV17L2,1.51
LUC7L,0.85
GABRA6,1.31
WDSUB1,0.98
H3C3,1.09
INO80,1.16
MPC2,0.64
CCL7,0.84
NEK7,0.97
ELMO3,0.85
ZDHHC4,0.75
ZCCHC12,0.51
SLK,0.78
PRCP,1.13
ABHD16B,0.92
SLC18A3,0.89
RAB21,0.91
TRIM22,1
TRAPPC6A,0.87
ZGPAT,1.21
KCNK4,1.26
SOS1,0.94
OR2T29,1.03
CPT1B,1.24
KXD1,1
ZNF181,0.83
EVA1A,0.8
SPRR2A,1.24
SON,1.19
PCP4,1.53

Single entries from the entries so far:
NEK7, CDH1-null / parental viability ratio → 0.97
PCP4, CDH1-null / parental viability ratio = 1.53
Value for SLC18A3 in “CDH1-null / parental viability ratio”: 0.89
For “CDH1-null / parental viability ratio”, SPRR2A reads 1.24
For “CDH1-null / parental viability ratio”, TRAPPC6A has 0.87
Under “CDH1-null / parental viability ratio”, EVA1A reads 0.8
